{"source": "patent US9371337B2", "about": "“β-lactamase inhibitors” (The Regents of the University of California, priority 2011, dated 2016)", "tested_on": "AmpC-overproducing Escherichia coli strain 4", "assay": "Mouse model of infection, bacterial counts (CFUs) in blood and organs", "format": "in vivo, OF1 mice", "details": "compared to treatment with cefotaxime alone and to untreated controls", "note": "For at least one compound, name, drawing or mass did not settle the structure."}
{"smiles": "C[C@@H](O)[C@H]1C(=O)N2C(C(=O)O)=C(SCCN=CN)C[C@H]12", "note": "[Imipenem, imipenem]", "values": [{"measurement": "colony forming unit (CFU) counts", "value": "reductions in all organs and blood"}]}
